According to article doi:10.64898/2025.12.13.694125:
These are yes or no findings as the source states them, for the method shown. Binding seen in cells or lysates may run through a third protein. Some results given as binding are weak or reduced against the parent protein; the word gives no strength.

Sequences of proteins named here, by UniProt entry; tags and fusion partners are left off. Residues count along the entry.
UniProt P56480, residues 47-529: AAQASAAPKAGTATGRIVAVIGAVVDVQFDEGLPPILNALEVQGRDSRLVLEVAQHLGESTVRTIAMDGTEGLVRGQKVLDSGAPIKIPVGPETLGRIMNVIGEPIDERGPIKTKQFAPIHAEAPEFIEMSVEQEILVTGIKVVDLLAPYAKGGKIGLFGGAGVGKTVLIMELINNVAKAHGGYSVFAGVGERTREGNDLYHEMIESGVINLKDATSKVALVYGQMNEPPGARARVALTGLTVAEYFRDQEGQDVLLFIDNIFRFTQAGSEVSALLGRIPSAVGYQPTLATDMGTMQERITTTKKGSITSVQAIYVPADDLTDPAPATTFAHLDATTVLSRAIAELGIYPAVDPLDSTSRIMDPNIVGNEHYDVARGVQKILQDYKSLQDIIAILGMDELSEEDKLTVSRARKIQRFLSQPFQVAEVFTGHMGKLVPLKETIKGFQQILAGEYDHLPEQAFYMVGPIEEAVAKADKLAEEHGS
UniProt Q03265, residues 44-553: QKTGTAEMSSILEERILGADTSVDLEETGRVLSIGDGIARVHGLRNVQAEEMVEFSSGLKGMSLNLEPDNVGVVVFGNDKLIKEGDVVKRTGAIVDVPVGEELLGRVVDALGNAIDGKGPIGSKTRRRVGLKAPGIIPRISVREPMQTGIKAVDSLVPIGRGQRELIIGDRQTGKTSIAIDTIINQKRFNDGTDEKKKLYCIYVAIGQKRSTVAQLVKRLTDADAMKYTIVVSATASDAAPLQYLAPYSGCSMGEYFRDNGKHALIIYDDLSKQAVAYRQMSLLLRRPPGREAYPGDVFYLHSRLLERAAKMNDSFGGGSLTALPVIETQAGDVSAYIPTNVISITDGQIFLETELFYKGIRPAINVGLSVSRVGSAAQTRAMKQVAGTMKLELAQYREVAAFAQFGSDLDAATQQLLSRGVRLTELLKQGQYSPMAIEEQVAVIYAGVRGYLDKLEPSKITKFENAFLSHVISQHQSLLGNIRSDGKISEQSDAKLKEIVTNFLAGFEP
UniProt Q99KR7, residues 30-206: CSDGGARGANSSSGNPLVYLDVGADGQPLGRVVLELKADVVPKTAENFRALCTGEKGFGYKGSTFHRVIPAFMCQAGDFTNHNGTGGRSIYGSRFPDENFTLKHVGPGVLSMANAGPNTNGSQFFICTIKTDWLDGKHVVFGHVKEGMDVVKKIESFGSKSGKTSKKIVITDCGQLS

Tests used:
Assay in all cases: cross-linking
[1] = molecular target: T1, peripheral stalk subunit ATP5J (mouse (endogenous in heart mitochondria)) (UniProt P97450)
T1 sequence: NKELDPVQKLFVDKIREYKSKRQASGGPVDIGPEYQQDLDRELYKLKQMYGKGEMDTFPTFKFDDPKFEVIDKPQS

[2] = molecular target: ATP synthase F1 catalytic head β subunit (ATPB) (mouse (endogenous in heart mitochondria)) (UniProt P56480)
[3] = molecular target: ATP synthase F1 catalytic head α subunit (ATPA) (mouse (endogenous in heart mitochondria)) (UniProt Q03265)

| binding [1] | binding [2] | binding [3] | Substance |
| --- | --- | --- | --- |
| binds |  |  | ATP synthase F1 catalytic head β subunit (ATPB) (from UniProt P56480 47-529) |
|  | binds | binds | PPIF (Cyclophilin D) (from UniProt Q99KR7 30-206) (enzyme) |
